# Test results reported in article PMC4006750, “GOLPH3 Is Essential for Contractile Ring Formation and Rab11 Localization to the Cleavage Site during Cytokinesis in Drosophila melanogaster” (PLoS Genetics, 2014).
# Protein sequences, listed by entry. Tags and fused reporters are not part of them. Lines headed by an entry give the natural chain unless they say otherwise; changes in a name come on top. Chains listed by the source or under a name are the forms on record and can include a tag or linker.
# UniProt P29742: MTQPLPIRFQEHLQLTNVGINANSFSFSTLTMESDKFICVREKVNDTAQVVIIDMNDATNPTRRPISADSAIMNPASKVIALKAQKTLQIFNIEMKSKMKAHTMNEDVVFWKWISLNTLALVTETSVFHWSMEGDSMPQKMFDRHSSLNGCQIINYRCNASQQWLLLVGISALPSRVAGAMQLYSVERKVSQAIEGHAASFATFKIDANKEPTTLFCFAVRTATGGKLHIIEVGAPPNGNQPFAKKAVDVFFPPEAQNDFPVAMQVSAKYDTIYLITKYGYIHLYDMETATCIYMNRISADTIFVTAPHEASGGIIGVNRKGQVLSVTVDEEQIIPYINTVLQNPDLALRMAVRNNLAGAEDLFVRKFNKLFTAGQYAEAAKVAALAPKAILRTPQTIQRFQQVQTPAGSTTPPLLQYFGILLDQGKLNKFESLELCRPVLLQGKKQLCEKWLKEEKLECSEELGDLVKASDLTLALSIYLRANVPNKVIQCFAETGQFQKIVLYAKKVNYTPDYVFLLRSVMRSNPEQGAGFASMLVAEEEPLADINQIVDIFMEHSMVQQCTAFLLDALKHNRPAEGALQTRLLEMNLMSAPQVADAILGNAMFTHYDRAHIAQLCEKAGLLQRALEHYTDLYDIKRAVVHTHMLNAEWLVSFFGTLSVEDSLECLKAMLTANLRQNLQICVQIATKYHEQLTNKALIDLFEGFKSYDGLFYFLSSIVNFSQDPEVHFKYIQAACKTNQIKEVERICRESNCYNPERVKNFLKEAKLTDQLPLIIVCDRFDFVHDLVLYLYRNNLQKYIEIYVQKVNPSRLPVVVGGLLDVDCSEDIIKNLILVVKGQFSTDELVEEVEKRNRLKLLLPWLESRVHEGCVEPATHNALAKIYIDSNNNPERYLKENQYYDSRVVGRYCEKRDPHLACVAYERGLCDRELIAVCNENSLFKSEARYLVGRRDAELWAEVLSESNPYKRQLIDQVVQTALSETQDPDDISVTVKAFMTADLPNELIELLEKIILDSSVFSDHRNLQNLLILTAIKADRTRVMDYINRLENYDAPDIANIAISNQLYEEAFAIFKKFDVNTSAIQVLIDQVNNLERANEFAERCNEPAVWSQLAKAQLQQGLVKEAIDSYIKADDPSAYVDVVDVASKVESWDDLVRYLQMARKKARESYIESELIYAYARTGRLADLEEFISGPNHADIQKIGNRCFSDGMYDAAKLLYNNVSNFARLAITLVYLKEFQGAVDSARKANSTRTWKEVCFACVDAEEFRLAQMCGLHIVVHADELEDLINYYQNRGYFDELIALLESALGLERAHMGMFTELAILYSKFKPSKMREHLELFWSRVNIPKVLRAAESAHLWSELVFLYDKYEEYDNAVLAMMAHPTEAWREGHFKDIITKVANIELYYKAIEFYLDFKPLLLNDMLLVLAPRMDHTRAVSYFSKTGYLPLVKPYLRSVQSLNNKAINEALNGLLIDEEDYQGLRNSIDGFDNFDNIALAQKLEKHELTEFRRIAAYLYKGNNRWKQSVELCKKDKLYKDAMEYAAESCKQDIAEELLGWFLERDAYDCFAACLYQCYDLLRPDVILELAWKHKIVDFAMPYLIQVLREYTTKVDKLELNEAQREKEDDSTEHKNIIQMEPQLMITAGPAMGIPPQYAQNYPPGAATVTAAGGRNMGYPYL
# UniProt Q9VQ93: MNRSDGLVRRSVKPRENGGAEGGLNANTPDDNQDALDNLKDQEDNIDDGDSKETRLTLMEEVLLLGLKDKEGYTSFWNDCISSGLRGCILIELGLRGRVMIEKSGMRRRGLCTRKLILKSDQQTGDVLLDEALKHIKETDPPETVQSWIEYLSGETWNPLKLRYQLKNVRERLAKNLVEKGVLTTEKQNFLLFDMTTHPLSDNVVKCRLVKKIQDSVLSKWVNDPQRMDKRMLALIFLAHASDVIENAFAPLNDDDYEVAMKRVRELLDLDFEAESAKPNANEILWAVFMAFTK
# Zipper (Myosin II heavy chain), endogenous in testes (Q99323, form named): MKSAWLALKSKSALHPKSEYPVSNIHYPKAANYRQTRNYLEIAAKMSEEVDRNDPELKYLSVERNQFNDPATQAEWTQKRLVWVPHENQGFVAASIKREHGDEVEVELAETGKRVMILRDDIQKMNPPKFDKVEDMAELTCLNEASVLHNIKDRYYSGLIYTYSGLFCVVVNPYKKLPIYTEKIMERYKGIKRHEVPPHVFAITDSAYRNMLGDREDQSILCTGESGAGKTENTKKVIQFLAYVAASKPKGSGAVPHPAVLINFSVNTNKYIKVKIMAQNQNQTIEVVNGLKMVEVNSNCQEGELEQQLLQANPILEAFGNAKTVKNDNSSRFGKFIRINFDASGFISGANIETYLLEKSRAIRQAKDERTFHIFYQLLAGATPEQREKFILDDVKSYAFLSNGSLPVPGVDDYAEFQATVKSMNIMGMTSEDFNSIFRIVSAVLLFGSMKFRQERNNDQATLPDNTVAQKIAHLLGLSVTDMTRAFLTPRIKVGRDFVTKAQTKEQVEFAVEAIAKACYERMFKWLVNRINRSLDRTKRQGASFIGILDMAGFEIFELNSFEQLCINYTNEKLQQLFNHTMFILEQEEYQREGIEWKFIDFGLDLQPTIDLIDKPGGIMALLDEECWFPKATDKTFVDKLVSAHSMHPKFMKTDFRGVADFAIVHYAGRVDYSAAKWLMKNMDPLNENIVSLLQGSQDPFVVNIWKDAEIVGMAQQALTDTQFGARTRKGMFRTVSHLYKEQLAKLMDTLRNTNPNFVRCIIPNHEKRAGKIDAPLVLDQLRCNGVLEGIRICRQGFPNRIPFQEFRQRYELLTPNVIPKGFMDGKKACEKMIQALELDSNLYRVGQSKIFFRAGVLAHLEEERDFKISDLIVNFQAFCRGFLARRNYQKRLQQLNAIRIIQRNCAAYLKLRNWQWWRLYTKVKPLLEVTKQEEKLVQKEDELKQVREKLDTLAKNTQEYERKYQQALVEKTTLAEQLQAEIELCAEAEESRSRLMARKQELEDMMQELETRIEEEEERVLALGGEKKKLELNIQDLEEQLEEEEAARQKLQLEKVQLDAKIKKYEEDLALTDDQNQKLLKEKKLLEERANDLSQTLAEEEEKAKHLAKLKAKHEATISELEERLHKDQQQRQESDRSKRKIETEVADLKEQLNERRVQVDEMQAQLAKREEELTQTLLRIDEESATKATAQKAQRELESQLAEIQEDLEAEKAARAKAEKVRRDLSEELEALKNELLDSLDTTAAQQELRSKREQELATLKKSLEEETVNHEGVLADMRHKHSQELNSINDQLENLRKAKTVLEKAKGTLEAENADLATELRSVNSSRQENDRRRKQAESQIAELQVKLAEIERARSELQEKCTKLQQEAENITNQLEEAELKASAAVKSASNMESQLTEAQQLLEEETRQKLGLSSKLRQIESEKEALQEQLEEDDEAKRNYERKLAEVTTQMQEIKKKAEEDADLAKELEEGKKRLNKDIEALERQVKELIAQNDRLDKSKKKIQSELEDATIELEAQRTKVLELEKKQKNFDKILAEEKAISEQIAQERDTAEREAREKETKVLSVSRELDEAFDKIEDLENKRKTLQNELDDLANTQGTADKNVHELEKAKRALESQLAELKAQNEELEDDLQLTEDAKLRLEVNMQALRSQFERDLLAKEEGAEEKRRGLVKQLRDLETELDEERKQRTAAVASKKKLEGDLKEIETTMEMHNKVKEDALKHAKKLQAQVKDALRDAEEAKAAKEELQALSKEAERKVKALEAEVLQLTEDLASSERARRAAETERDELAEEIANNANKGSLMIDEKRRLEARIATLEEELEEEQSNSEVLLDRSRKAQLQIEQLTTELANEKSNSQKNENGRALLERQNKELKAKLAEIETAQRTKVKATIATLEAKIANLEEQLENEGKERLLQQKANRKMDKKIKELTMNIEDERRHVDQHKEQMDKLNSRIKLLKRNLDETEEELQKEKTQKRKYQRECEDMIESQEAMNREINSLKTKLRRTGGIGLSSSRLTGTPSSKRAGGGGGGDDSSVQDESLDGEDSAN
# Where two headings read alike, the source gives them in different places. Results are given in words; binding and its absence hold for the method and conditions named. Binding seen in cells or lysates may run through a third protein. Some entries that bind do so weakly or less than the wild type. For some assays here: Sequences can lack the tags named with a protein.
# T1: GFP-Rab11 expressed in testes (Drosophila) (UniProt O18335)
# T1 sequence: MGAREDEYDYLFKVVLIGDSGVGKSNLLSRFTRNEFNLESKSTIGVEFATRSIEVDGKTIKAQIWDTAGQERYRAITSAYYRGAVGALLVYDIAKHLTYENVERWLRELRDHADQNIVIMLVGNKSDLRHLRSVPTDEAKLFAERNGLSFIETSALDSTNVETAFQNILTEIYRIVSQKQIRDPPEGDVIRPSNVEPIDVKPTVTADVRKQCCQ
# T2: GFP-Rab5 expressed in testes (UniProt Q9V3I2)
# T2 sequence: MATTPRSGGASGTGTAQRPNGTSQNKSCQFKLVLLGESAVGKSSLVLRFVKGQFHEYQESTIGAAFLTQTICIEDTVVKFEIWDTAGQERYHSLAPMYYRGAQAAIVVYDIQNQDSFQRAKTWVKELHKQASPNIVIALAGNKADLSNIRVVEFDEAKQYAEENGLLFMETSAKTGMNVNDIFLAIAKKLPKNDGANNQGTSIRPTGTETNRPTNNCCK
# Tests used:
# [1] = biological target: Clathrin heavy chain tagged with RFP (Chc-RFP), expressed in testes (UniProt P29742); assay: co-IP; testis extracts expressing GFP- or RFP-tagged proteins, GFP/RFP trap-A beads (ChromoTek), control binding beads as control; blotted for GOLPH3
# [2] = biological target: T1, GFP-Rab11 expressed in testes (Drosophila); assay: as above
# [3] = biological target: T2, GFP-Rab5 expressed in testes; assay: as above
# [4] = biological target: GFP-GOLPH3 expressed in S2 cells (Drosophila melanogaster) (UniProt Q9VQ93); assay: co-IP; extracts of S2 cells transfected with Vps35-Flag and GFP-GOLPH3 (or GFP), GFP-trap; blotted for Zipper and Flag
# [5] = biological target: GFP-GOLPH3 expressed in testes (Drosophila melanogaster) (UniProt Q9VQ93); assay: co-IP; lysate of 400 adult testes expressing GFP-GOLPH3, mouse monoclonal anti-GFP and protein G-sepharose, non-specific mouse IgG as control; blotted for Zipper
# [6] = biological target: GST-GOLPH3 (GST-full-length Drosophila GOLPH3) (Drosophila melanogaster) (UniProt Q9VQ93); assay: pull-down; GST-GOLPH3 bound to Glutathione-Sepharose 4B beads incubated with testis lysate, 4°C, two hours; lysis buffer 25 mM Tris-HCl pH 7.4, 150 mM NaCl, 0.5% NP-40, 1 mM EDTA; Western blot; only the target purified
# [7] = biological target: GST-GOLPH3 (GST-full-length Drosophila GOLPH3) (Drosophila melanogaster) (UniProt Q9VQ93); assay: as above; remark: listed apart in the source
molecule,measurement,setting,value
"Drosophila GOLPH3, endogenous in testes (from UniProt Q9VQ93 1-294)",binding,[1],binds
same,binding,[2],binds
same,binding,[3],binds
"Zipper (Myosin II heavy chain), endogenous in S2 cells (from UniProt Q99323 1-2056)",binding,[4],binds
"Zipper (Myosin II heavy chain), endogenous in testes (from UniProt Q99323 1-2056)",binding,[5],binds
same,binding,[6],binds
"Clathrin light chain tagged with GFP (Clc-GFP), expressed in testes (protein, UniProt Q9VWA1 1-219) MDFGDDFAAKEDVDPAAEFLAREQSALGDLEAEITGGSASAPPAASTDEGLGELLGGTASEGDLLSAGGTGGLESSTGSFEVIGGESNEPVGISGPPPSREEPEKIRKWREEQKQRLEEKDIEEERKKEELRQQSKKELDDWLRQIGESISKTKLASRNAEKQAATLENGTIEPGTEWERIAKLCDFNPKVNKAGKDVSRMRSIYLHLKQNPIQVQKST",binding,[7],binds
"Drosophila Rab11, GST removed (analyte of the SPR experiment) (natural protein, UniProt O18335 1-214, looked up, Drosophila Rab11, full-length, made as GST fusion; source: E. coli BL21-CodonPlus [DE3], purified as GST fusion, GST cleaved off with PreScission Protease) MGAREDEYDYLFKVVLIGDSGVGKSNLLSRFTRNEFNLESKSTIGVEFATRSIEVDGKTIKAQIWDTAGQERYRAITSAYYRGAVGALLVYDIAKHLTYENVERWLRELRDHADQNIVIMLVGNKSDLRHLRSVPTDEAKLFAERNGLSFIETSALDSTNVETAFQNILTEIYRIVSQKQIRDPPEGDVIRPSNVEPIDVKPTVTADVRKQCCQ",binding,[7],binds
